In publication PMC7498331 one finds binding data, which are given here for one substance.

Chains of the proteins cited; added tags and fusions are not shown.
UniProt Q8CJB9: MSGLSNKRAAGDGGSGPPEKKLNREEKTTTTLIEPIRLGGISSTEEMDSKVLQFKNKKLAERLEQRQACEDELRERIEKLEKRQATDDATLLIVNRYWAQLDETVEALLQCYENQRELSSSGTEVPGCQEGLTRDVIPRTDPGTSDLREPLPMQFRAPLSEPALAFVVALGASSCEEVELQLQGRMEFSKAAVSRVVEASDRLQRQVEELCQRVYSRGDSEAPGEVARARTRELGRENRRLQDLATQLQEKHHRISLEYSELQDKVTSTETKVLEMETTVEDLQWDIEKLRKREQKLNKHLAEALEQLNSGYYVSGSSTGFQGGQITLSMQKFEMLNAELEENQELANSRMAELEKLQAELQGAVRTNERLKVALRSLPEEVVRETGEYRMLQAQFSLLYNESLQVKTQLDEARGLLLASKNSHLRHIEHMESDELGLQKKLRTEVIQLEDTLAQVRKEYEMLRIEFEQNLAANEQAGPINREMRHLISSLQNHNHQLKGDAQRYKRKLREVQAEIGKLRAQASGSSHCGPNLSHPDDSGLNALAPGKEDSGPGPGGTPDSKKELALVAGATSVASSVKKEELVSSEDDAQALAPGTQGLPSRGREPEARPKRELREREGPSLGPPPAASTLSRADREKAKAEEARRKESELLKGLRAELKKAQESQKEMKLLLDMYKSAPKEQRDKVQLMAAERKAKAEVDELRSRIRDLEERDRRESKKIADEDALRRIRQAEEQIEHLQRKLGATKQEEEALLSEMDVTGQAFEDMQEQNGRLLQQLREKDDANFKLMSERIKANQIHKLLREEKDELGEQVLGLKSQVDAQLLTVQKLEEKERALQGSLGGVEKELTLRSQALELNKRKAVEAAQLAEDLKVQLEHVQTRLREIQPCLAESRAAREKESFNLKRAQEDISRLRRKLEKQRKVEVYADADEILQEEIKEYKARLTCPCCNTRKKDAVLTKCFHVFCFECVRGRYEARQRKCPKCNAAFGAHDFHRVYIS

These are yes or no findings as the source states them, for the method shown. In cells and extracts the contact can be indirect. Some results given as binding are weak or reduced against the parent protein; the word gives no strength.

In the test the target is Endogenous Rnf40 (rat (endogenous in primary rat Schwann cells)) (UniProt Q8CJB9). In words: co-IP; endogenous proteins; whole cell extracts of primary rat Schwann cells treated for 3 days with dibutyryl-cAMP, neuregulin and insulin; precipitation with anti-Rnf40 or anti-Rnf20 antibodies (IgG control) and protein A sepharose overnight at 4°C; western blot for Egr2.

“Endogenous Egr2 (from UniProt P51774 1-470)”: the binding result was “binds”.
